# From PubChem BioAssay AID1347423 (Functional Genomics Laboratory (NCATS/FGL), 2020)
# Out of some 52,000 sequences screened, about 210 (0.4%) were called active.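 How the source made its calls: active means gene whose silencing raises cell survival under the drug, median off-target-corrected z-score across its silencing RNAs 2 or more; inactive means the rest.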 Some of the results follow.
# Assay: Resistance to Poly (ADP-Ribose) Polymerase inhibitor: Gene Identification via Genome-wide siRNA Screen
# Settings: mouse BRCA2 R2336H ES cells, olaparib, CellTiter-Glo viability; active compounds read high
# Outline: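 Genome-wide siRNA screen (3 siRNAs/gene, 20 nM) in mouse ES cells carrying hypomorphic BRCA2 R2336H; olaparib 500 nM added 48 h post-transfection, CellTiter-Glo viability 72 h later. Normalized to plate-median negative control; MAD z-scores, gene median, seed-adjusted.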
row,Sequence,z-score
1,GCGGUUUUUUUGGAAGCCATT against Ehf,inactive: -0.805
2,CGCAGAGUUCUAGUAACUCTT against Tcfl5,inactive: 0.409
3,GGUUAUCAGUUGCAUUGUUTT against Gpr37l1,inactive: -1.41
4,GGAGAUUGUGCGCCGUAACTT against Gprc2a,inactive: 0.367
5,GCCUUUAAUCAACCCAAGATT against Scd1,inactive: -0.945
6,CCAUGCCAUGAGCAUCCAUTT against Bbs2,inactive: -1.77
7,GGUUGUGCUGAUAUUUUACTT against D15Ertd735e,inactive: 0.526
8,GGAUGCGUUCUAUGUUGCGTT against Odc1,inactive: -0.271
9,CCUCUUCGUUAAUUGGACATT against Fbxw2,inactive: -0.502
10,GGCUAUGUAGAUCUUGUCATT against Nqo3a2,inactive: 0.626
11,GGGCUUGUAGAUGUGCGUATT against Hic2,inactive: -1.3
12,GCCCAGCUAACUUCCACCUTT against Mmp10,inactive: -0.187
13,CCAUUUUUCCUACGUGGGUTT against AA407930,inactive: 0.00816
14,GGUCUGAGUUUUAAACAGUTT against Gmfb,inactive: 0.0999
15,GGCCUGAAGAAGAUGCAGGTT against Rpl29,inactive: -0.00873
16,GGAGAUUUGCCGUAUGGAUTT against Wwox,inactive: -1.81
17,CCUGAUCCGAUCAUCAGGATT against Pscdbp,inactive: -0.447
18,GGAAAAUGGUUCUUUCUGCTT against 6330583M11Rik,inactive: 1.17
19,CUCAAUGGGAGCCACUUUUTT against LOC434197,inactive: -1.85
20,GGAUAUAAGACACAAGCUGTT against Mpa2,inactive: -0.433
21,GGAUCAUAUGCAGAAAUCUTT against Zfp62,inactive: 1.1
22,GGAAAGACAAAAUCUAUGATT against Peg3,inactive: 0.715
23,GGUAUAAACCAAAAAGCAGTT against 0610012K18Rik,inactive: -0.116
24,GGAGGAGUUUCGCUACGGATT against Sars2,inactive: -0.403
25,GCCGGAUCCGAACAAGGAUTT against 3000003F02Rik,inactive: 0.0925
26,CCUUCGAGAUUGAACUGUATT against Numbl,inactive: 0.358
27,GGCUGAAGUUAUCCUGCCATT against 4933430J11,inactive: 0.181
28,GCCUAUCACGAGCUAUGAUTT against Shkbp1,inactive: -1.79
29,GGCUGAUGUGGUGUGCUAUTT against Aoah,inactive: 0.392

# Two entries from above in a different format:
row	Sequence	z-score
2	CGCAGAGUUCUAGUAACUCTT against Tcfl5	inactive: 0.409
22	GGAAAGACAAAAUCUAUGATT against Peg3	inactive: 0.715
